Data published in patent US12351830B2, “Method for maintaining and amplifying colon cancer stem cells and method for inducing colon cancer organoid” (NATIONAL UNIVERSITY CORPORATION KOBE UNIVERSITY, priority 2017, dated 2025).
For at least one compound, name, drawing or mass did not settle the structure.

Assays:
Format in all cases: cell-based, human
parental SW480 cells [1] = test: flat plane adhesion culture of parental SW480 cells, cell count and morphology
2nd V50-OKS cells [2] = test: flat plane adhesion culture of induced colon cancer stem cells, cell count and morphology
Protocol: A human colon cancer cell line (SW480) and Plat-A amphotropic retrovirus packaging cells were obtained from the ATCC collection and Cell Biolabs (San Diego, CA, USA), respectively. Both cells were maintained in Dulbecco's modified Eagle's medium (DMEM) (Nacalai Tesque, Kyoto, Japan) supplemented with 10% fetal bovine serum (FBS) (Life Technologies) and penicillin (100 Units/ml) and streptomycin (100 μg/ml) (Life Technologies) at 37° C. in a humidified 5% […] incubator. In Plat-A culture, 1 μg/ml of puromycin (Nacalai Tesque) and 10 μg/ml of blasticidin (Funakoshi) were added. HUVECs (Lonza) and human MSCs (Lonza) were maintained in endothelial growth medium (Lonza) at 37° C. in a humidified 5% CO2 incubator. The cells were treated with FK506 (Sigma, 25 μM), VPA (WAKO, 1 mM) or CHIR99021 (Funakoshi, 3 μM) for 5 days. Thereafter, the cells were detached from the culture dish by an enzyme treatment, dispersed and the number of the cells was counted with Countess system (Invitrogen). The human induced pluripotent stem (hiPS) cells used as a control were generated from human peripheral blood mononuclear cells in the laboratory. […]
SW480 cells or 2nd V50 cells were subjected to flat plane adhesion culture in the presence of FK506 (Sigma) for 5-15 days, and the cell number was counted with Countess (Invitrogen) system. […] The sphere number was counted with Countess (Invitrogen) system. […]

2nd V50-OKS cells [3] = test: sphere formation assay, induced colon cancer stem cells
Protocol: The cells were transferred to Ultra Low Attachment plates (Corning) in serum-free DMEM containing 10 ng/ml bFGF (WAKO), 10 μg/ml human insulin (CST), 100 μg/ml human transferrin (Roche) and 100 μg/ml BSA (Nacalai Tesque), and incubated at 37° C. in a 5% CO2 incubator for 10 days. The sphere count was calculated based on the sphere size which was larger than 100 μm. FK506 (25 μM), VPA (1 mM) or CHIR99021 (3 μM) were added to the medium and the spheres were then treated for 10 days. SW480 cells or 2nd V50 cells were subjected to flat plane adhesion culture in the presence of FK506 (Sigma) for 5-15 days, and the cell number was counted with Countess (Invitrogen) system. Alternatively, the cells were subjected to flat plane adhesion culture in the presence of FK506, and then suspension culture in the presence or absence of FK506 to form spheres. The sphere number was counted with Countess (Invitrogen) system. Unless otherwise specified, FK506 was used at a concentration of 25 μM in this Example.

parental SW480 cells [4] = test: sphere formation assay, parental cells; details: FK506 25 μM, 10 days
[5] = system: spheres of 2nd V50-OKS cells; test: histological and immunohistochemistry analyses of the spheres
2nd V50 cells = test: colony formation assay; details: 1 mM VPA, 3 μM CHIR or 25 μM FK506, day 12
Protocol: 2nd VP50 cells produced by 3 independent experiments were seeded in a 6 well plate at a density of 2×10^3 cells/well. The next day, the medium was changed to a medium not added with the compound, or a medium added with 1 mM VPA, 3 μM CHIR or 25 μM FK506. Thereafter, the medium was changed every 2 days or 3 days. On day 12, the cells were fixed with methanol, stained with crystal violet and the colonies were counted using a stereoscopic microscope.

NFATc3-GFP = test: localization of NFATc3-GFP in 2nd V50-OKS cells; details: 2nd V50-OKS cells treated with compound
Text: Retroviral vectors separately encoding OCT3/4, SOX2 or KLF4 in pMXs based vectors (pMXs-OCT3/4, pMXs-SOX2, pMXs-KLF4) were obtained from Addgene. Therefore, using these vectors, the polycistronic retroviral vector encoding OCT3/4, KLF4 and SOX2 (pMXs-OKS) was designed. That is, human OCT3/4, KLF4 and SOX2 were amplified by polymerase chain reaction (PCR) with primers containing the 2A sequences of Thosea asigna virus (T2A) and cloned into EcoRI site of pMXs vector using the In-fusion HD cloning system (Clontech). To generate pMXs-NFATc3-GFP construct, NFATc3-GFP cDNA were PCR amplified using HA-NFAT4 (3-407)-GFP (purchased from Addgene #21664) as a template and cloned into EcoRI-Notl site of pMXs-vector).
Finally, the cellular localization of NFAT after the treatment of FK506, VPA and CHIR in the iCSCs was examined. NFATc3 fused to green fluorescent protein (NFATc3-GFP; Aramburu J, et al., Science, 1999; 285:2129-33, Peuker K, et al., Nat Med, 2016, 22:506-15) was retrovirally introduced into 2nd V50-OKS cells. In the 2nd V50-OKS cells without any compounds and those with FK506, it was observed that NFATc3-GFP localized in the cytoplasm. In contrast, localization of NFATc3-GFP was found in the nuclei of the 2nd V50-OKS cells treated with VPA and CHIR (FIG. 16). […] This is opposite to inhibition of calcineurin via cytoplasm-nuclear translocation of NFAT.

For `C=CC[C@@H]1/C=C(\C)C[C@H](C)C[C@H](OC)[C@H]2O[C@@](O)(C(=O)C(=O)N3CCCC[C@H]3C(=O)O[C@H](/C(C)=C/[C@@H]3CC[C@@H](O)[C@H](OC)C3)[C@H](C)[C@@H](O)CC1=O)[C@H](C)C[C@@H]2OC` [FK506, FK506 (tacrolimus)], the number of cells (parental SW480 cells [1]; parental SW480 cultures, FK506 25 μM, 5 days after passage) was “significantly reduced”, the cell morphologies (parental SW480 cells [1]; parental SW480 with FK506) was “did not change” and the “morphology, dome-shaped colonies” value (2nd V50-OKS cells [2]; 2nd V50-OKS cells with FK506) was “became more prominent”. For the same compound, the “morphological characteristics of CSC” value (2nd V50-OKS cells [2]; expansion adhesion culture up to 15 days, compared to conditions without FK506) was “well maintained”, the number of spheres (2nd V50-OKS cells [3]; 2nd V50-OKS cells, FK506 25 μM, 10 days) was “significantly increased” and the “concentration range in which effect on sphere forming ability was observed” value (2nd V50-OKS cells [3]; 2nd V50-OKS cells, suspension culture 10 days, 0, 1, 2.5, 10, 25 μM tested, at least this range) was 1 μM-25 μM. For the same compound, the sphere forming ability (2nd V50-OKS cells [3]; FK506 (25 μM) during 15 days adhesion culture, no FK506 during 10 days suspension culture) was “high sphere forming ability”, the “number of spheres increased” value (parental SW480 cells [4]) was “not” and the “immunohistochemical pattern of spheres (CK20, CDX2, CK7)” value ([5]; 2nd V50 cells cultured 15 days in presence of FK506 (25 μM), then suspension cultured 7 days) was “positive for CK20 and CDX2, and negative for CK7”. For the same compound, the “immunohistochemical pattern of spheres (CK20, CDX2, CK7)” value ([5]; spheres of 2nd V50-OKS cells treated with FK506) was “positive for CK20 and CDX2, negative for CK7”, the “number of secondary dome-shaped colonies” value (2nd V50 cells) was “increased” and the “cellular localization of NFATc3-GFP” value (NFATc3-GFP) was “cytoplasm”.
